Results deposited as PubChem BioAssay AID652243 (Drosophila RNAi Screening Center, 2013).
In all, the deposit lists about 24,000 reagents; below is a random part of those that have a named target and a result. Of all reagents, 246 (1%) got an active call. 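Plates not normalised; calls are printed but the firefly/Renilla ratio behind them is not deposited; fold cut for lowering reported inconsistently.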 Raw values vary from plate to plate and are shown uncorrected. Names joined by + are all predicted targets of the reagent. No sequences are given here. Not stated in the record: the amount of reagent.

- Aim: 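Fly genes required for human androgen receptor driven transcription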 (primary screen)
- System: Drosophila S2R+ cells
- Reagents: long dsRNA against Drosophila genes
- Duration: 72 h (48 h, then 24 h hormone)
- Conditions: synthetic androgen R1881 at 10 nM for 24 h
- Measurement: 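Per-well raw luminescence of the androgen-driven firefly reporter and of the Renilla control, two replicates each, without normalisation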
- Reading the numbers: firefly reporter light: higher = more light from androgen-responsive reporter; Renilla control light: higher = more constitutive control signal (cell number, transfection)
- Call rule: 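Hit when the log firefly-to-Renilla ratio dropped or increased by a fixed fold versus the mean of GFP or LacZ controls across duplicate plates; lowering cut given as 1.5 and as 3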
- Meaning of the calls: active = hit: reporter lowered or raised; inactive = no hit

no.	predicted target	DRSC id	firefly reporter light, replicate 1	firefly reporter light, replicate 2	Renilla control light, replicate 1	Renilla control light, replicate 2	outcome
1	CG2926	DRSC12321	40524	45371	7.07e5	5.87e5	inactive
2	CG4860	DRSC15664	4.66e5	4.44e5	3.86e6	3.58e6	inactive
3	CG4860	DRSC21755	5.64e5	5.11e5	6.37e5	7.48e5	inactive
4	SerRS-m (Seryl-tRNA synthetase, mitochondrial)	DRSC14096	1.22e5	1.11e5	1.77e6	2.20e6	inactive
5	RhoGAP18B (Rho GTPase activating protein at 18B)	DRSC19763	1.98e5	2.36e5	8.95e5	4.13e5	inactive
6	RhoGAP18B (Rho GTPase activating protein at 18B)	DRSC20047	1.78e5	1.39e5	8.64e5	4.04e5	inactive
7	RhoGAP18B (Rho GTPase activating protein at 18B)	DRSC20048	1.88e5	1.84e5	5.38e5	3.17e5	inactive
8	RhoGAP18B (Rho GTPase activating protein at 18B)	DRSC20049	47038	15720	2.18e5	1.32e5	inactive
9	RhoGAP18B (Rho GTPase activating protein at 18B)	DRSC25093	1.02e6	8.72e5	8.47e5	7.21e5	inactive
10	Gbs-70E (Glycogen binding subunit 70E)	DRSC11055	1.54e5	1.55e5	1.38e6	2.00e6	active
11	Gbs-70E (Glycogen binding subunit 70E)	DRSC36902					inactive
12	Gbs-70E (Glycogen binding subunit 70E)	DRSC36903					inactive
13	eRF3 (eukaryotic translation release factor 3)	DRSC03322	3.08e5	2.61e5	1.19e6	2.03e6	inactive
14	AsnS (Asparagine synthetase)	DRSC11468	1.53e5	1.32e5	2.34e5	2.17e5	inactive
15	CG34144 (retired record)	DRSC18885	1.69e6	7.09e5	3.95e6	1.63e6	inactive
16	CG34144 (retired record)	DRSC19380	1.89e5	1.88e5	3.03e6	2.93e6	active
17	CG34144 (retired record)	DRSC23284	8.33e5	7.52e5	98702	95751	inactive
18	CG34144 (retired record)	DRSC38598	2.42e5	2.79e5	9.64e5	1.22e6	inactive
19	CG4049	DRSC04443	2.68e5	3.40e5	2.29e6	2.01e6	inactive
20	CG4049	DRSC29138	7.79e5	9.06e5	1.28e6	1.09e6	inactive
21	CG43902	DRSC17850	3.54e5	2.54e5	3.28e6	2.29e6	inactive
22	CG43902	DRSC17999	6.59e5	5.23e5	1.31e6	1.20e6	inactive
23	CG43902	DRSC25064	7.26e5	6.77e5	1.35e6	1.05e6	inactive
24	moi + Tgs1	DRSC16371	61681	59358	6.43e5	5.26e5	inactive
25	Rph (Rabphilin)	DRSC17790	74811	68604	1.99e6	2.19e6	active
26	Rph (Rabphilin)	DRSC23887	2.64e5	1.72e5	1.12e6	3.59e5	inactive
27	CG3631	DRSC15503	76676	84640	5.51e5	5.68e5	inactive
28	CG3631	DRSC29768	3.19e5	4.17e5	9.60e5	1.35e6	inactive
29	Prat2 (Phosphoribosylamidotransferase 2)	DRSC09692	1.45e6	9.42e5	1.69e6	1.44e6	inactive
30	CG14100	DRSC10101	1.73e5	1.39e5	1.68e6	1.88e6	inactive
31	cno (canoe)	DRSC12054	1.73e5	83463	2.57e5	2.53e5	inactive
32	cno (canoe)	DRSC22980	1.04e6	1.03e6	1.22e6	9.46e5	inactive
33	cno (canoe)	DRSC25770	1.85e5	2.46e5	9.62e5	6.85e5	inactive
34	cno (canoe)	DRSC28027	2.95e5	1.98e5	8.43e5	8.26e5	inactive
35	CG11350	DRSC08181	4.09e5	3.09e5	2.33e6	1.72e6	inactive
36	CG11350	DRSC25083	1.03e6	1.08e6	8.32e5	7.50e5	inactive
37	fsd (fates-shifted)	DRSC06166	2.24e5	2.35e5	1.28e6	1.29e6	inactive
38	Taf4 (TBP-associated factor 4)	DRSC11297	15530	10399	1.15e5	1.27e5	inactive
39	Taf4 (TBP-associated factor 4)	DRSC25921	1.78e5	2.19e5	5.60e5	4.72e5	inactive
40	GCS2alpha (Glucosidase 2 alpha subunit)	DRSC21036	1.96e5	1.83e5	4.66e5	5.44e5	inactive
41	Mur18B (Mucin related 18B)	DRSC20063	1.58e5	1.14e5	6.71e5	6.09e5	inactive
42	Mur18B (Mucin related 18B)	DRSC28610	3.89e5	2.98e5	1.51e6	1.31e6	inactive
43	Mur18B (Mucin related 18B)	DRSC39003	9.25e5	8.97e5	2.38e6	2.54e6	inactive
44	CG10738	DRSC09792	2.41e5	1.48e5	1.82e6	1.54e6	inactive
45	CG10738	DRSC24408	8.63e5	9.66e5	1.19e6	1.06e6	inactive
46	CG10738	DRSC39298					inactive
47	fs(1)M3 (female sterile (1) M3)	DRSC18381	1.12e5	85662	1.02e6	7.76e5	inactive
48	fs(1)M3 (female sterile (1) M3)	DRSC29155	5.71e5	6.62e5	1.36e6	1.35e6	inactive
49	Pgm2a (Phosphoglucomutase 2a)	DRSC07068	1.04e6	1.02e6	1.56e6	1.51e6	inactive
50	CG13056	DRSC09937	2.66e5	2.30e5	2.93e6	1.79e6	inactive
51	CG13056	DRSC29419	6.53e5	7.65e5	1.56e6	1.56e6	inactive
52	ND-B17.2 (NADH dehydrogenase (ubiquinone) B17.2 subunit)	DRSC00577	1.34e5	1.04e5	1.20e6	9.73e5	inactive
53	ND-B17.2 (NADH dehydrogenase (ubiquinone) B17.2 subunit)	DRSC26940	4.92e5	3.79e5	9.74e5	6.27e5	inactive
54	Ste:CG33238 + Ste:CG33241 + Ste:CG33244 + 10 more	DRSC26515	3.53e5	2.13e5	4.46e5	2.44e5	inactive
55	lncRNA:CR42862 + CG33229	DRSC08497	1.03e6	9.66e5	1.45e6	1.29e6	inactive
56	CG31436	DRSC14661	1.59e5	1.95e5	2.11e6	2.41e6	inactive
57	CG31436	DRSC24566	1.13e6	8.74e5	9.84e5	9.08e5	inactive
58	Synd (Syndapin)	DRSC15116	2.62e5	2.35e5	2.87e6	2.88e6	inactive

9 neighbouring reagents from above, for reference:
no.	predicted target	DRSC id	firefly reporter light, replicate 1	firefly reporter light, replicate 2	Renilla control light, replicate 1	Renilla control light, replicate 2	outcome
43	Mur18B (Mucin related 18B)	DRSC39003	9.25e5	8.97e5	2.38e6	2.54e6	inactive
44	CG10738	DRSC09792	2.41e5	1.48e5	1.82e6	1.54e6	inactive
45	CG10738	DRSC24408	8.63e5	9.66e5	1.19e6	1.06e6	inactive
46	CG10738	DRSC39298					inactive
47	fs(1)M3 (female sterile (1) M3)	DRSC18381	1.12e5	85662	1.02e6	7.76e5	inactive
48	fs(1)M3 (female sterile (1) M3)	DRSC29155	5.71e5	6.62e5	1.36e6	1.35e6	inactive
49	Pgm2a (Phosphoglucomutase 2a)	DRSC07068	1.04e6	1.02e6	1.56e6	1.51e6	inactive
50	CG13056	DRSC09937	2.66e5	2.30e5	2.93e6	1.79e6	inactive
51	CG13056	DRSC29419	6.53e5	7.65e5	1.56e6	1.56e6	inactive
